For some assays here: For expression read-outs the peptide stands for its source gene, whose mRNA was measured; the gene is not named for every peptide.
What was measured:
HLA-A*02 = experiment: Identification and relative LC-MS quantitation of HLA-A*02-presented tumor-associated peptides on tissue samples (presentation profiles, Tables 13A, 13B, 15, FIG. 1); parameters: species or system human; key to Presentation score NHL / Presentation score CLL / Presentation score BRCA / Presentation score AML / Presentation score GB / Presentation score NSCLC / Presentation score GBC_CCC / Presentation score UEC / Presentation score MEL / Presentation score OSCAR / Presentation score GC / Presentation score UBC / Presentation score OC / Presentation score RCC / Presentation score CRC / Presentation score PCA / Presentation score HCC / Presentation score PC / Presentation score SCLC: specifically presented on tumors (++++); very highly over-presented on tumors compared to a panel of normal tissues (+++); highly over-presented on tumors compared to a panel of normal tissues (++); over-presented on tumors compared to a panel of normal tissues (+); conditions: for Peptide Presentation on cancer entities: HLA-A*02-binding tumor-associated peptides
source genes (mRNA) [1] = experiment: Expression profiling of source genes by in-house RNASeq of tumor and normal tissues (Table 18, FIG. 2); parameters: species or system human; key: very highly over-expressed in tumors compared to a panel of normal tissues (+++); highly over-expressed in tumors compared to a panel of normal tissues (++); over-expressed in tumors compared to a panel of normal tissues (+); conditions: source gene of peptide; for Expression score CRC: colorectal cancer (N = 20) vs panel of normal tissues; for Expression score OSCAR: esophageal cancer incl. gastric-esophageal junction (N = 11) vs panel of normal tissues; for Expression score GBC_CCC: gallbladder adenocarcinoma and cholangiocarcinoma (N = 3) vs panel of normal tissues; for Expression score GC: gastric cancer (N = 11) vs panel of normal tissues; for Expression score NSCLC: non-small cell lung cancer (N = 11) vs panel of normal tissues; for Expression score OC: ovarian cancer (N = 12) vs panel of normal tissues; for Expression score PC: pancreatic cancer (N = 26) vs panel of normal tissues; for Expression score UBC: urinary bladder cancer (N = 10) vs panel of normal tissues
source genes (mRNA) [2] = experiment: Gene and exon expression of source genes, TCGA tumor samples compared with normal tissue samples (Lonsdale, 2013) (Table 17); parameters: species or system human; conditions: for Target coverage: over-expression category of source gene, READ: Colon and rectal adenocarcinoma (N = 167); for Target coverage: over-expression category of source gene, COAD: Colon and rectal adenocarcinoma (N = 462); for Target coverage: over-expression category of source gene, ESCA: Esophageal cancer (N = 185); for Target coverage: over-expression category of source gene, STAD: Stomach adenocarcinoma (N = 415)
[3] = Table 13A, cancer entities on which the peptide was found presented
[4] = cutoff more than 2-fold above highest 75% percentile of normal tissue samples

Substance: 14: peptide found in BRIP1 (gene looked up) (ILAKDLFEI; listed as Homo sapiens) [compound 14]
- Presentation score AML (HLA-A*02; HLA-A*02 peptides, acute myeloid leukemia (N = 18) vs panel of normal tissues (N = 262)): ++++
- Presentation score OSCAR (HLA-A*02; HLA-A*02 peptides, esophageal cancer, including cancer of the gastric-esophageal junction (N = 17) vs panel of normal tissues (N = 262)): ++++
- Presentation score HCC (HLA-A*02; HLA-A*02 peptides, hepatocellular carcinoma (N = 16) vs panel of normal tissues (N = 262)): ++++
- Presentation score NHL (HLA-A*02; HLA-A*02 peptides, non-Hodgkin lymphoma (N = 18) vs panel of normal tissues (N = 262)): ++++
- Presentation score NSCLC (HLA-A*02; HLA-A*02 peptides, non-small cell lung cancer (N = 90) vs panel of normal tissues (N = 262)): ++++
- Presentation score UBC (HLA-A*02; HLA-A*02 peptides, urinary bladder cancer (N = 16) vs panel of normal tissues (N = 262)): ++++
- Peptide Presentation on cancer entities (HLA-A*02; [3]): NSCLC, HCC, OSCAR, UBC, AML, NHL
- Peptide Presentation on cancer entities (HLA-A*02; Table 13B, presentation on additional cancer entities): SCLC
- Expression score BRCA (source genes (mRNA) [1]; BRCA tumors vs panel of normal tissues): +++
- Expression score AML (source genes (mRNA) [1]; acute myeloid leukemia (N = 11) vs panel of normal tissues): +
- Expression score CRC (source genes (mRNA) [1]): ++
- Expression score OSCAR (source genes (mRNA) [1]): ++
- Expression score GBC_CCC (source genes (mRNA) [1]): +
- Expression score GC (source genes (mRNA) [1]): +
- Expression score GB (source genes (mRNA) [1]; glioblastoma (N = 24) vs panel of normal tissues): ++
- Expression score HCC (source genes (mRNA) [1]; hepatocellular carcinoma (N = 15) vs panel of normal tissues): +
- Expression score NHL (source genes (mRNA) [1]; non-Hodgkin lymphoma (N = 10) vs panel of normal tissues): ++
- Expression score NSCLC (source genes (mRNA) [1]): ++
- Expression score OC (source genes (mRNA) [1]): +
- Expression score PC (source genes (mRNA) [1]): +
- Expression score SCLC (source genes (mRNA) [1]; small cell lung cancer (N = 10) vs panel of normal tissues): +++
- Expression score UBC (source genes (mRNA) [1]): +
- Expression score UEC (source genes (mRNA) [1]; uterine cancer (N = 10) vs panel of normal tissues): +
- Target coverage: over-expression category of source gene, LAML (source genes (mRNA) [2]; Acute Myeloid Leukemia (N = 173), cutoff more than 2-fold above highest 75% percentile of normal tissue samples): A (>=50% of tumors above the cutoff)
- Target coverage: over-expression category of source gene, BLCA (source genes (mRNA) [2]; Bladder urothelial carcinoma (N = 408), cutoff more than 2-fold above highest 75% percentile of normal tissue samples): B (>= 20% of tumors above the cutoff, but <50%)
- Target coverage: over-expression category of source gene, BRCA (source genes (mRNA) [2]; Breast cancer (N = 1104), cutoff more than 2-fold above highest 75% percentile of high and medium risk normal tissue samples): B (>= 20% of tumors above the cutoff, but <50%)
- Target coverage: over-expression category of source gene, READ (source genes (mRNA) [2]; [4]): B (>= 20% of tumors above the cutoff, but <50%)
- Target coverage: over-expression category of source gene, COAD (source genes (mRNA) [2]; [4]): B (>= 20% of tumors above the cutoff, but <50%)
- Target coverage: over-expression category of source gene, ESCA (source genes (mRNA) [2]; [4]): B (>= 20% of tumors above the cutoff, but <50%)
- Target coverage: over-expression category of source gene, GBM (source genes (mRNA) [2]; Glioblastoma multiforme (N = 169), cutoff more than 2-fold above highest 75% percentile of normal tissue samples): C (>=5% of tumors above the cutoff, but <20%)
- Target coverage: over-expression category of source gene, LIHC (source genes (mRNA) [2]; Liver hepatocellular carcinoma (N = 374), cutoff more than 2-fold above highest 75% percentile of normal tissue samples): C (>=5% of tumors above the cutoff, but <20%)
- Target coverage: over-expression category of source gene, LGG (source genes (mRNA) [2]; Lower grade glioma (N = 534), cutoff more than 2-fold above highest 75% percentile of normal tissue samples): C (>=5% of tumors above the cutoff, but <20%)
- Target coverage: over-expression category of source gene, LUAD (source genes (mRNA) [2]; Lung adenocarcinoma (N = 517), cutoff more than 2-fold above highest 75% percentile of normal tissue samples): C (>=5% of tumors above the cutoff, but <20%)
- Target coverage: over-expression category of source gene, LUSC (source genes (mRNA) [2]; Lung squamous cell carcinoma (N = 503), cutoff more than 2-fold above highest 75% percentile of normal tissue samples): B (>= 20% of tumors above the cutoff, but <50%)
- Target coverage: over-expression category of source gene, DLBC (source genes (mRNA) [2]; Lymphoid neoplasm diffuse large B-cell lymphoma (N = 48), cutoff more than 2-fold above highest 75% percentile of normal tissue samples): C (>=5% of tumors above the cutoff, but <20%)
- Target coverage: over-expression category of source gene, OV (source genes (mRNA) [2]; Ovarian serous cystadenocarcinoma (N = 309), cutoff more than 2-fold above highest 75% percentile of normal tissue samples): C (>=5% of tumors above the cutoff, but <20%)
- Target coverage: over-expression category of source gene, SKCM (source genes (mRNA) [2]; Skin cutaneous melanoma (N = 473), cutoff more than 2-fold above highest 75% percentile of normal tissue samples): B (>= 20% of tumors above the cutoff, but <50%)
- Target coverage: over-expression category of source gene, STAD (source genes (mRNA) [2]; [4]): C (>=5% of tumors above the cutoff, but <20%)
- Target coverage: over-expression category of source gene, UCEC (source genes (mRNA) [2]; Uterine corpus endometrial carcinoma (N = 546), cutoff more than 2-fold above highest 75% percentile of normal tissue samples): C (>=5% of tumors above the cutoff, but <20%)

Substance: 83: peptide found in MST1R (gene looked up) (GQASYFYVA; listed as Homo sapiens) [compound 83]
- Peptide Presentation on cancer entities (HLA-A*02; [3]): CRC, AML
- Expression score CRC (source genes (mRNA) [1]): ++
- Expression score OSCAR (source genes (mRNA) [1]): +
- Expression score GBC_CCC (source genes (mRNA) [1]): +
- Expression score GC (source genes (mRNA) [1]): +++
- Expression score NSCLC (source genes (mRNA) [1]): +
- Expression score OC (source genes (mRNA) [1]): +
- Expression score PC (source genes (mRNA) [1]): +++
- Expression score UBC (source genes (mRNA) [1]): +++
- Target coverage: over-expression category of source gene, READ (source genes (mRNA) [2]; [4]): C (>=5% of tumors above the cutoff, but <20%)
- Target coverage: over-expression category of source gene, COAD (source genes (mRNA) [2]; [4]): C (>=5% of tumors above the cutoff, but <20%)
- Target coverage: over-expression category of source gene, ESCA (source genes (mRNA) [2]; [4]): C (>=5% of tumors above the cutoff, but <20%)
- Target coverage: over-expression category of source gene, PAAD (source genes (mRNA) [2]; Pancreatic ductal adenocarcinoma (N = 179), cutoff more than 2-fold above highest 75% percentile of normal tissue samples): C (>=5% of tumors above the cutoff, but <20%)
- Target coverage: over-expression category of source gene, STAD (source genes (mRNA) [2]; [4]): C (>=5% of tumors above the cutoff, but <20%)
